# Reference: paper doi:10.1101/470914
# Molecular target: T1, EGFP-PLPPR1 (Phospholipid Phosphatase-Related Protein Type 1) (UniProt Q8BFZ2)
# T1 sequence: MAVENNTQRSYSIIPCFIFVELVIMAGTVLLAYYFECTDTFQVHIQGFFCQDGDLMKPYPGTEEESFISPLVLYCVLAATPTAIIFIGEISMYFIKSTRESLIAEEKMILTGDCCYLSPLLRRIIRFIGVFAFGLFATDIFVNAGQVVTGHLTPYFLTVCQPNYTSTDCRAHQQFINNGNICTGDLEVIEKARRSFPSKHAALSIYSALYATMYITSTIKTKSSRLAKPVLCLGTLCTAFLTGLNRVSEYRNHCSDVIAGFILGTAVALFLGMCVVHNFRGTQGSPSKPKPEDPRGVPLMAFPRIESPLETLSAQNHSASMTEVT
# Assay: co-IP
substance,measurement,value
RhoGDI (Rho Guanine Nucleotide Dissociation Inhibitor) (mouse (endogenous in Neuro2a)),binding,binds

# These are yes or no findings as the source states them, for the method shown. In cells and extracts the contact can be indirect. Binding calls can cover weak binding; strength is not graded here. Where a sequence is shown, tags or fusion partners need not be part of it.
